Results deposited as PubChem BioAssay AID720505 (Drosophila RNAi Screening Center, 2013)

Screen: 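Genes needed for store-operated calcium entry in fly cells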 (primary screen)
Cell system: Drosophila S2R+ cells
Knock-down reagent: long dsRNA against Drosophila genes
Treatment: thapsigargin (2 µM) in calcium-free buffer to empty internal stores, then 2 mM calcium added back
Measured: 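Fluo-4 signal in 384-well plates read on a FLIPR after thapsigargin (2 µM, calcium-free) store depletion and 2 mM calcium add-back; unnormalised mean endpoint per well; screen run twice, selected wells retested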
Scale: calcium signal and retest calcium signal: higher = more calcium entry after store depletion
Call rule: 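Knock-downs counted as hits when calcium entry dropped relative to STIM1 positive and Rho1 negative controls present on each plate; roughly 1500 genes called, with reductions of differing size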
Meaning of the calls: active = called as lowering calcium entry; inactive = not called
In all, the deposit lists about 20,000 reagents; this is a random part of those that have a named target and a result. In the full data, about 2,100 (10%) were called active. 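Raw plate signals without normalisation; calls rest on control-based scores that were not deposited; replicate 2 separates called from uncalled poorly.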 Entries without a mark were called inactive. Names joined by + are all predicted targets of the reagent. Reagent sequences are not shown. Not given: the amount of reagent, the time to read-out.

gene,PubChem SID,"calcium signal, replicate 1","calcium signal, replicate 2","retest calcium signal, replicate 1","retest calcium signal, replicate 2"
Sdc (Syndecan),SID104184446,101,107,,
CG4270,SID104180440,157,174,,
CG5078,SID104191554,99,179,,
ninaC (neither inactivation nor afterpotential C),SID104183371,150,253,,
mld (molting defective),SID104194414,253,175,,
dpr16 (defective proboscis extension response 16),SID104192009,65.3 (active),118,,
dpr16 (defective proboscis extension response 16),SID104192041,104,123,,
CG9646,SID104187134,140,114,,
CG6231,SID104195789,174,188,,
lncRNA:CR43493 + l(1)G0196,SID104200420,165,117,,
CG14187,SID104189978,72.5 (active),109,,
CG33116,SID104181837,93,119,,
CG30148,SID104186183,132,154,,
CG11700,SID104197586,29.9 (active),43.1,,
STUB1 (STIP1 homology and U-box containing protein 1),SID104183074,149,133,,
sens-2 (senseless-2),SID104181928,143,131,,
sens-2 (senseless-2),SID104182405,151,121,,
sens-2 (senseless-2),SID104201145,137,81.5,,
CG17361,SID104190058,82.9,105,,
kappaTry,SID104185938,140,201,,
CG14984,SID104188234,90.6,118,,
CG15710,SID104186373,145,157,,
CR43670 + grp + CR43671 + 1 more,SID104183333,85.4,124,,
CG5274,SID104191566,125,106,,
Cpr49Aa (Cuticular protein 49Aa),SID104186989,107,187,,
PIP4K (Phosphatidylinositol 5-phosphate 4-kinase),SID104197005,134,172,,
CG6654,SID104195876,141,95.2,,
CG31244,SID104201296,107,98.7,,
Ir75a (Ionotropic receptor 75a),SID104189980,126,195,,
vret (vreteno),SID104195432,165,227,,
MstProx + Mst84Da,SID104192389,63.4 (active),116,,
CycE (Cyclin E),SID104183087,71.4,88.7,,
CycE (Cyclin E),SID104183088,108,130,,
CG7530,SID104196047,148,142,98.4,103
tbrd-1,SID104194393,151,155,,

Look-ups from the list.
Entry of tbrd-1 [SID104194393] in “calcium signal, replicate 2”: 155
For “calcium signal, replicate 2”, sens-2 (senseless-2) [SID104182405] has 121
ninaC (neither inactivation nor afterpotential C) [SID104183371], calcium signal, replicate 1 → 150
Result for CG15710 [SID104186373] in “calcium signal, replicate 2”: 157
Value of CG17361 [SID104190058] in “calcium signal, replicate 2”: 105

Next entries follow:
gene,PubChem SID,"calcium signal, replicate 1","calcium signal, replicate 2","retest calcium signal, replicate 1","retest calcium signal, replicate 2"
CG6550,SID104186793,97.1,115,,
Trs20 (TRAPP subunit 20),SID104190281,100,176,,
CG1271,SID104188082,59.6 (active),99,,
NijA (Ninjurin A),SID104190429,81,70,,
CG1999,SID104197991,141,146,,
CG18130,SID104199582,118,78.7,,
Ids (Iduronate 2-sulfatase),SID104188014,62.5,98.5,,
CG6592,SID104190461,59.4,62.1,,
CG7049,SID104188379,193,97.1,,
kl-2 (male fertility factor kl2),SID104200928,129,112,,
CG5255,SID104195546,144,185,,
Obp83ef (Odorant-binding protein 83ef),SID104192060,97.6,133,,
CG13622,SID104194416,278,130,,
CG43902,SID104197642,95.2,84.7,,
CG43902,SID104197791,92.2,87.7,,
hec (hector),SID104199687,135,115,,
CG6686,SID104182771,88.8,83.7,,
heph (hephaestus),SID104195228,95.7,129,,
heph (hephaestus),SID104196575,82.9,157,,
Npl4 (Nuclear protein localization 4),SID104195407,116,110,,
Npl4 (Nuclear protein localization 4),SID104195408,107,122,,
